Experimental data from patent publication US11628162B2, “Methods of treating cancer with an FGFR inhibitor” (Incyte Corporation, priority 2019, dated 2023).
The name of at least one read-out is uncertain.

Experiment: Phase 1 drug-drug interaction study: single-dose pemigatinib PK alone or with itraconazole or rifampin
Details: Cohort 1: 4.5 mg pemigatinib alone or with itraconazole 200 mg QD; geometric mean

CCN1C(=O)N(c2c(F)c(OC)cc(OC)c2F)Cc2cnc3[nH]c(CN4CCOCC4)cc3c21 [Pemigatinib, 3-(2,6-difluoro-3,5-dimethoxyphenyl)-1-ethyl-8-(morpholin-4-ylmethyl)-1,3,4,7-tetrahydro-2H-pyrrolo[3′,2′: 5,6]pyrido[4,3-d]pyrimidin-2-one] gave a Vz/F of 233 L.
